Experimental data from the supplement of paper PMC10849652.
Some of the results follow.

Amino acid sequences for entries named in this document (tags omitted). A change or cut given only in a name is not applied to a line headed by its entry.
UniProt Q13505: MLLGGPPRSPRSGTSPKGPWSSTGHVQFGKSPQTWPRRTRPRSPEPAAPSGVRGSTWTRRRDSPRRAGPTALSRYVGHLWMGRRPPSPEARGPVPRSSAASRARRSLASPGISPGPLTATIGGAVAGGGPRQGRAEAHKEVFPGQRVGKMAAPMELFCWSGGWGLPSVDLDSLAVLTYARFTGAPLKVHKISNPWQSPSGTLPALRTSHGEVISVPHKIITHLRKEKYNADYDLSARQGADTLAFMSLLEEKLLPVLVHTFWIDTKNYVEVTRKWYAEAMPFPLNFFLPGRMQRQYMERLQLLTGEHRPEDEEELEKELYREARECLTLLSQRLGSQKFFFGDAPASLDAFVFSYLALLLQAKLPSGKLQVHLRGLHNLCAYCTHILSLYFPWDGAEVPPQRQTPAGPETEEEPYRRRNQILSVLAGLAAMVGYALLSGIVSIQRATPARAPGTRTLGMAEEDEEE
UniProt P60660, whole entry, looked up: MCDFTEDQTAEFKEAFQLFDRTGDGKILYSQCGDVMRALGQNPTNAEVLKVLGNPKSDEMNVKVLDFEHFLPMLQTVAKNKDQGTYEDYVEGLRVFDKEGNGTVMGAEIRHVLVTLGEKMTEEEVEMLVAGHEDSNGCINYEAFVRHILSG
UniProt P42898: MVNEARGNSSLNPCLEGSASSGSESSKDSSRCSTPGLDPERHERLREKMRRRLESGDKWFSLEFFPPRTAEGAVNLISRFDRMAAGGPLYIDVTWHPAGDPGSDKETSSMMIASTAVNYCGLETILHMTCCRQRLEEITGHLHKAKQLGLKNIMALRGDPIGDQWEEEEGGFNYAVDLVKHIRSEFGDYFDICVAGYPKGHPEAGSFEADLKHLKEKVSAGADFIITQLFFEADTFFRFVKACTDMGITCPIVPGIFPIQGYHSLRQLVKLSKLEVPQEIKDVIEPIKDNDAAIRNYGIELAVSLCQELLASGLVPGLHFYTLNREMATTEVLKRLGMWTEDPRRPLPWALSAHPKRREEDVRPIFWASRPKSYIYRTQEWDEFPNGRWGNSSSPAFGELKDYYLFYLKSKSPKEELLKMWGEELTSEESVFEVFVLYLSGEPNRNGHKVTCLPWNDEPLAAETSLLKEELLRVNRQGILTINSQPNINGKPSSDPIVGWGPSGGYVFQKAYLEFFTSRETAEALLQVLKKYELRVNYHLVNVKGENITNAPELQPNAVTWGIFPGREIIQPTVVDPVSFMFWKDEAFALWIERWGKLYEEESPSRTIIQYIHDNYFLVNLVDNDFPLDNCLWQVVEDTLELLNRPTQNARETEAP
UniProt Q9UKX2, whole entry, looked up: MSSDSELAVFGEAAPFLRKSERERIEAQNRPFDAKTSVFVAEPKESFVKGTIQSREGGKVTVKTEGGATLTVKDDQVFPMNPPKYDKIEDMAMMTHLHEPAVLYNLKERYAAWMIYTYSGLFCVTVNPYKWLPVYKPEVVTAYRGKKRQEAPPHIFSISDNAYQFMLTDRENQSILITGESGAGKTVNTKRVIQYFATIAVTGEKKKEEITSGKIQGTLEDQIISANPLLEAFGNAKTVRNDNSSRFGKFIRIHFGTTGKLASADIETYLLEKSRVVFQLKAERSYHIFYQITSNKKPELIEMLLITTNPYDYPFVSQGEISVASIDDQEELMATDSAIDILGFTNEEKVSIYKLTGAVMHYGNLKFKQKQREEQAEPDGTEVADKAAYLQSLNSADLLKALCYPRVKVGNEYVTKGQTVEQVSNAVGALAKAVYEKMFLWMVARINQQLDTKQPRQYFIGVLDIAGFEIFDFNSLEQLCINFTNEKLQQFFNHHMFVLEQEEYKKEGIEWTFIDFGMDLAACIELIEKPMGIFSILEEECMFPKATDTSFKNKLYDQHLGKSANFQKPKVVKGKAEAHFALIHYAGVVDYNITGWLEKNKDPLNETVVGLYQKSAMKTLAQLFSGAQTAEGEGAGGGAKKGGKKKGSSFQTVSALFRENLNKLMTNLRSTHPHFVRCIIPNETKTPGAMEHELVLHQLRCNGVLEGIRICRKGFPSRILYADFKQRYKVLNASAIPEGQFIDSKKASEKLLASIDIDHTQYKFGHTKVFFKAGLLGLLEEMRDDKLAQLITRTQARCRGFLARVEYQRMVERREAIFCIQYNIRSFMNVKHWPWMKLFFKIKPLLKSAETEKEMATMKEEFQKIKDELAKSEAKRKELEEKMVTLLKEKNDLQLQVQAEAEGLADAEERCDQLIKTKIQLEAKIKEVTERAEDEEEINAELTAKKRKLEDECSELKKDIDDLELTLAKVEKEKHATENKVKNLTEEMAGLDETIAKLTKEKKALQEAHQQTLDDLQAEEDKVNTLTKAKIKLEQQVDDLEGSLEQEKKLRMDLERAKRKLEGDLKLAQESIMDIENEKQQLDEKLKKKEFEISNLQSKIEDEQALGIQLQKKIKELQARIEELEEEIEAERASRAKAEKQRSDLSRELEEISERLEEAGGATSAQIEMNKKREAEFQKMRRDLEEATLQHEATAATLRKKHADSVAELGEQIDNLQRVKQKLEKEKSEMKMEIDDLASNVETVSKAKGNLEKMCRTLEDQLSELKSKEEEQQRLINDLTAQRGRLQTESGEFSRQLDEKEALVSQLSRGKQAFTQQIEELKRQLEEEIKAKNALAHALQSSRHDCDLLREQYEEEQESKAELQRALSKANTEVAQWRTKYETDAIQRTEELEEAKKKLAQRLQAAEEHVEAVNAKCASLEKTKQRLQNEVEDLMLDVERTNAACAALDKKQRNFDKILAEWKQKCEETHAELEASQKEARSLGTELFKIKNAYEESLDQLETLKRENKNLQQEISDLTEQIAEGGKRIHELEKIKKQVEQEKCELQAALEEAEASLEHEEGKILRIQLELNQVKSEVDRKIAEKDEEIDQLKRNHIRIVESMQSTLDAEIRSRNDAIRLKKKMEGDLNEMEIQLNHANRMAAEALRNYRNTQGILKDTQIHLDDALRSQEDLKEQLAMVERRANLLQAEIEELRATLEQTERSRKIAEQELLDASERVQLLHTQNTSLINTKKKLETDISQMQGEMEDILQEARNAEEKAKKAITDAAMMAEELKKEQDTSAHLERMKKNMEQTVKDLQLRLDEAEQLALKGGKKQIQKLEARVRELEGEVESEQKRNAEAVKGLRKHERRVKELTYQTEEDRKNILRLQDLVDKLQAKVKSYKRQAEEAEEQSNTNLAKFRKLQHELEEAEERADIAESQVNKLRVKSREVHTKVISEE
UniProt P12829: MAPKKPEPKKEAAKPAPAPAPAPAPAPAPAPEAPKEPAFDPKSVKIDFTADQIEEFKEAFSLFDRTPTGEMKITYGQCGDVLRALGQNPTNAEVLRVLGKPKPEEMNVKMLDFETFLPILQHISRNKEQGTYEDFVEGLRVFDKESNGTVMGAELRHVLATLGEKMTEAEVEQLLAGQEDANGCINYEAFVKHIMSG
UniProt Q9UBK8: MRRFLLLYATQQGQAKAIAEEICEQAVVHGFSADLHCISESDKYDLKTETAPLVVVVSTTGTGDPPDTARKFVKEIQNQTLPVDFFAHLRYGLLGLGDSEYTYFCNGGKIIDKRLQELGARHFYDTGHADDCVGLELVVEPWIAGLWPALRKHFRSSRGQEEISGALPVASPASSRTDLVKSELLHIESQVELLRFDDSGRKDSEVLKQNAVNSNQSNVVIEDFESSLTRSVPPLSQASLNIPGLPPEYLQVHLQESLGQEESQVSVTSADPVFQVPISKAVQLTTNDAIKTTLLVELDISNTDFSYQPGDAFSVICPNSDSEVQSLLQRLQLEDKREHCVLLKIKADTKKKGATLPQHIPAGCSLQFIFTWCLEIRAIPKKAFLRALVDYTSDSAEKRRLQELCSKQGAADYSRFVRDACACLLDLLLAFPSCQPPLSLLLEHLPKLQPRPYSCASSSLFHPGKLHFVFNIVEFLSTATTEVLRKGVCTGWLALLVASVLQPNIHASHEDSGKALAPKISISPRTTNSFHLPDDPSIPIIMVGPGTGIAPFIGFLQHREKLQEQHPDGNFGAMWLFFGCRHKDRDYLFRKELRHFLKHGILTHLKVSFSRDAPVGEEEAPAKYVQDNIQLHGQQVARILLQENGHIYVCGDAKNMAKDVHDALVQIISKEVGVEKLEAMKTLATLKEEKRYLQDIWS

Compound: c1cn2cc(-c3ccc4cn[nH]c4c3)nc(Nc3ccc(N4CCOCC4)cc3)c2n1 [entospletinib]
Assay: log2 fold change, soluble protein after heating vs DMSO (PISA); higher = thermal stabilisation; K562 cells, 10 uM, 30 min; active = over 0.2 and 3.5 SD of the protein, either way, in both replicates (recomputed)
Method in brief: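 K562 cells at 2×10^6 cells/mL were treated with 10 μM compound for 30 min. Aliquots were heated for 3 min across 48°C-58°C, pooled, and extracted in PBS with 0.5% NP-40 at 4°C; soluble protein was the supernatant after 21,000xg for 90 min. Soluble protein was quantified by TMTpro 16plex LC-MS/MS with channel sums equalised, and reported as log2 fold change in thermal stability against DMSO controls, with values from duplicates.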

log2 fold change, inactive:
MTX1 (UniProt Q13505) 0.049, MYL6 isoform 2 (UniProt P60660) 0.022, MTHFR isoform 2 (UniProt P42898) 0, MYH2 (UniProt Q9UKX2) 0.802, MYL4 (UniProt P12829) -0.033, MTRR isoform 1 (UniProt Q9UBK8) -0.026
